# Assay results

From PubChem BioAssay record AID1224904 (Broad Institute, 2016).

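Selective DUX4 reporter inhibition in doxycycline-induced 293T-iDUX4 cells, scored as Gaussia percent activity minus Italica percent activity, after a 24-hour treatment.
The test concentration is not given here.
Percent difference between the Gaussia and Italica channels; more negative values mean more selective suppression of the DUX4 reporter, and higher values mean less activity.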

Values are in %.
How 0% and 100% were set is not given here.
Common to all entries: measured here: selective DUX4 reporter inhibition.
This is a side read-out of the assay, for part of the compounds, not drawn at random.

SMILES,Gaussia minus Italica difference (%)
O=C(C[C@@H]1CC[C@@H]2[C@H](COC[C@@H](O)CN2C(=O)c2ccccc2F)O1)NCc1ccc(-c2ccccc2)cc1,-5.997
O=C(c1cccnc1)N1CC[C@@H]2[C@H]1c1cc(-c3ccc(F)cc3)ccc1N[C@@H]2CO,-13.9
O=C(c1ccncc1)N1CC(=O)N2[C@H](CO)[C@H](c3ccc(C#CCC4CCCC4)cc3)[C@H]2C1,-6.165
C[C@H](CO)N1C[C@H](C)[C@H](CN(C)Cc2ccccc2C(F)(F)F)OCc2cnnn2CCCC1=O,-9.769
CCCNC(=O)N1CC2(C1)[C@H](c1ccccc1)[C@@H](CO)N2Cc1cccc(F)c1,-16.21
C[C@H](CO)N1C[C@H](C)[C@@H](CN(C)S(=O)(=O)c2ccc(C(F)(F)F)cc2)OCc2ccccc2-c2ccccc2C1=O,-4.53
CO[C@@H]1CN(C)C(=O)c2ccc(NC(=O)c3nc4ccccc4s3)cc2OC[C@H](C)N(Cc2cccnc2)C[C@@H]1C,-8.446
O=C(NCC1CC1)[C@@H]1[C@@H](CO)[C@@H]2Cn3c(ccc(-c4cccc(F)c4)c3=O)[C@@H]2N1CC1CCCC1,-1.064
O=C(C[C@@H]1CC[C@@H]2[C@H](COC[C@@H](O)CN2Cc2nccs2)O1)NCc1ccc(-c2ccccc2)cc1,-1.54
O=C(C[C@@H]1CC[C@H]2[C@@H](COC[C@H](O)CN2Cc2cccc(F)c2)O1)NCC1CCCCC1,-7.627
C[C@H]1CN([C@@H](C)CO)C(=O)c2c(c3ccccc3n2C)-c2ccccc2CO[C@@H]1CN(C)Cc1cccc(C(F)(F)F)c1,-15.62
COc1ccc(NC(=O)N2CCCCN3[C@H](CO)[C@H](c4ccc(-c5ccccc5F)cc4)[C@@H]3C2)cc1,-8.615
O=C(C[C@H]1CC[C@H]2[C@@H](COC[C@@H](O)CN2Cc2ccccc2F)O1)N[C@@H]1CCN(Cc2ccccc2)C1,-9.846
Cc1ccccc1S(=O)(=O)N1CC(=O)N2[C@H](C1)[C@H](c1ccc(C#CCC(C)C)cc1)[C@@H]2CO,-22.64
OC[C@@H]1[C@H](c2ccc(-c3ccccc3F)cc2)[C@H]2CN(Cc3ccncc3)CCCCN12,-6.718
N#Cc1cccc(-c2ccc3c(c2)[C@@H]2[C@@H](CCN2C(=O)c2ccncc2)[C@@H](CO)N3)c1,-5.768
O=C(C[C@@H]1CC[C@H]2[C@@H](COC[C@H](O)CN2Cc2cccc(C(F)(F)F)c2)O1)NCc1ccc(F)cc1,-4.174
COc1cccc(C#Cc2ccc3c(c2)[C@H]2[C@H](CCN2C(=O)Cc2ccccc2)[C@@H](CO)N3C)c1,-16.95
O=C(c1cccnc1)N1CC(=O)N2[C@H](C1)[C@@H](c1ccc(C#CCC3CCCC3)cc1)[C@@H]2CO,3.741
COc1cccc(C(=O)Nc2ccc3c(c2)OC[C@H](C)N(CCc2ccccc2)C[C@H](C)[C@H](OC)CN(C)C3=O)c1,-19.78
COc1cccc(-c2ccc3c(c2)[C@@H]2[C@@H](CCN2S(=O)(=O)c2ccccc2F)[C@@H](CO)N3C)c1,6.045
COCC(=O)N1CC[C@H]2[C@H](CO)Nc3ccc(-c4cccc(C(=O)N(C)C)c4)cc3[C@H]21,-19.61
COc1ccccc1-c1ccc([C@H]2[C@@H](CO)N3CCCCN(Cc4ccncc4)C[C@H]23)cc1,-16.21
COc1cccc(-c2ccc([C@H]3[C@H]4CN(C(=O)Cc5ccncc5)CCCCN4[C@H]3CO)cc2)c1,-24.1
N#C[C@@H]1[C@@H](c2ccccc2C2=CCCCC2)[C@@H](CO)N1S(=O)(=O)c1ccccc1,-4.038
CS(=O)(=O)N1CC2(C1)[C@@H](c1ccccc1)[C@@H](CO)N2Cc1ccccn1,-15.53
C[C@H](NC(=O)C[C@@H]1CC[C@@H]2[C@H](COC[C@@H](O)CN2Cc2ccc(C(F)(F)F)cc2)O1)c1ccccc1,-18.46
COc1ccc(C#Cc2ccc([C@@H]3[C@H]4CN(S(=O)(=O)c5cn(C)cn5)CCCCN4[C@H]3CO)cc2)cc1,-9.865
OC[C@@H]1[C@H](c2ccc(-c3ccccc3F)cc2)[C@@H]2CN(Cc3cccnc3)CCCCN12,-3.436
O=C(C[C@H]1CC[C@H]2[C@@H](COC[C@H](O)CN2C(=O)Nc2cc(Cl)cc(Cl)c2)O1)N1CCCCC1,-8.761
COCC(=O)N1CC2(CCN(Cc3ccccc3)CC2)c2c(n(C)c3cc(OC)ccc23)[C@H]1CO,19.18
N#C[C@H]1[C@@H](c2ccccc2C2=CCCCC2)[C@@H](CO)N1C(=O)NC1CCCC1,-8.408
CCCNC(=O)N1C[C@@H]2N[C@H](C1)C2c1ccc(-c2ccc(OC)cc2)cc1 (some centres not stated),4.115
Cc1ccccc1-c1ccc([C@@H]2[C@@H](CO)N3CCCCN(C(=O)c4cccnc4)C[C@H]23)cc1,-13.89
COc1ccc2c3c(n(C)c2c1)[C@@H](CO)NCC31CCN(Cc2ccc(Cl)cc2)CC1,10.69
O=C(NCC1CC1)[C@@H]1N[C@@H]2c3ccc(C4=CCCCC4)c(=O)n3C[C@@H]2[C@H]1CO,-17.89
CN1[C@@H]2Cn3c(ccc(-c4ccccc4)c3=O)[C@H]1[C@@H](C(=O)N1CCC(Cc3ccccc3)CC1)[C@@H]2CO,-7.032
COc1ccc2c3c(n(C)c2c1)[C@@H](CO)N(C(=O)c1cccc(F)c1)CC31CN(C(=O)c2cccc(F)c2)C1,-15.89
CO[C@@H]1CN(C)C(=O)c2ccc(NC(=O)Nc3cccc(Cl)c3)cc2OC[C@H](C)NC[C@@H]1C,-4.289
C(=C\c1ccc(C2[C@@H]3CN(Cc4ccc5c(c4)OCO5)C[C@H]2N3)cc1)/c1ccccc1 (some centres not stated),5.004
CN1c2ccc(Br)cc2[C@@H]2[C@@H](CCN2C(=O)CN2CCOCC2)[C@H]1CO,-9.675
COc1ccccc1-c1ccc2c(c1)[C@@H]1[C@@H](CCN1S(=O)(=O)c1cccc(C)c1)[C@H](CO)N2,21.32

4 of the entries, repeated:

SMILES,Gaussia minus Italica difference (%)
O=C(c1cccnc1)N1CC[C@@H]2[C@H]1c1cc(-c3ccc(F)cc3)ccc1N[C@@H]2CO,-13.9
C[C@H](NC(=O)C[C@@H]1CC[C@@H]2[C@H](COC[C@@H](O)CN2Cc2ccc(C(F)(F)F)cc2)O1)c1ccccc1,-18.46
Cc1ccccc1-c1ccc([C@@H]2[C@@H](CO)N3CCCCN(C(=O)c4cccnc4)C[C@H]23)cc1,-13.89
CN1c2ccc(Br)cc2[C@@H]2[C@@H](CCN2C(=O)CN2CCOCC2)[C@H]1CO,-9.675